# According to the supplement of paper PMC6411743:
# Amino acid sequences for entries named in this document (tags omitted). A change or cut given only in a name is not applied to a line headed by its entry.
# UniProt O75691: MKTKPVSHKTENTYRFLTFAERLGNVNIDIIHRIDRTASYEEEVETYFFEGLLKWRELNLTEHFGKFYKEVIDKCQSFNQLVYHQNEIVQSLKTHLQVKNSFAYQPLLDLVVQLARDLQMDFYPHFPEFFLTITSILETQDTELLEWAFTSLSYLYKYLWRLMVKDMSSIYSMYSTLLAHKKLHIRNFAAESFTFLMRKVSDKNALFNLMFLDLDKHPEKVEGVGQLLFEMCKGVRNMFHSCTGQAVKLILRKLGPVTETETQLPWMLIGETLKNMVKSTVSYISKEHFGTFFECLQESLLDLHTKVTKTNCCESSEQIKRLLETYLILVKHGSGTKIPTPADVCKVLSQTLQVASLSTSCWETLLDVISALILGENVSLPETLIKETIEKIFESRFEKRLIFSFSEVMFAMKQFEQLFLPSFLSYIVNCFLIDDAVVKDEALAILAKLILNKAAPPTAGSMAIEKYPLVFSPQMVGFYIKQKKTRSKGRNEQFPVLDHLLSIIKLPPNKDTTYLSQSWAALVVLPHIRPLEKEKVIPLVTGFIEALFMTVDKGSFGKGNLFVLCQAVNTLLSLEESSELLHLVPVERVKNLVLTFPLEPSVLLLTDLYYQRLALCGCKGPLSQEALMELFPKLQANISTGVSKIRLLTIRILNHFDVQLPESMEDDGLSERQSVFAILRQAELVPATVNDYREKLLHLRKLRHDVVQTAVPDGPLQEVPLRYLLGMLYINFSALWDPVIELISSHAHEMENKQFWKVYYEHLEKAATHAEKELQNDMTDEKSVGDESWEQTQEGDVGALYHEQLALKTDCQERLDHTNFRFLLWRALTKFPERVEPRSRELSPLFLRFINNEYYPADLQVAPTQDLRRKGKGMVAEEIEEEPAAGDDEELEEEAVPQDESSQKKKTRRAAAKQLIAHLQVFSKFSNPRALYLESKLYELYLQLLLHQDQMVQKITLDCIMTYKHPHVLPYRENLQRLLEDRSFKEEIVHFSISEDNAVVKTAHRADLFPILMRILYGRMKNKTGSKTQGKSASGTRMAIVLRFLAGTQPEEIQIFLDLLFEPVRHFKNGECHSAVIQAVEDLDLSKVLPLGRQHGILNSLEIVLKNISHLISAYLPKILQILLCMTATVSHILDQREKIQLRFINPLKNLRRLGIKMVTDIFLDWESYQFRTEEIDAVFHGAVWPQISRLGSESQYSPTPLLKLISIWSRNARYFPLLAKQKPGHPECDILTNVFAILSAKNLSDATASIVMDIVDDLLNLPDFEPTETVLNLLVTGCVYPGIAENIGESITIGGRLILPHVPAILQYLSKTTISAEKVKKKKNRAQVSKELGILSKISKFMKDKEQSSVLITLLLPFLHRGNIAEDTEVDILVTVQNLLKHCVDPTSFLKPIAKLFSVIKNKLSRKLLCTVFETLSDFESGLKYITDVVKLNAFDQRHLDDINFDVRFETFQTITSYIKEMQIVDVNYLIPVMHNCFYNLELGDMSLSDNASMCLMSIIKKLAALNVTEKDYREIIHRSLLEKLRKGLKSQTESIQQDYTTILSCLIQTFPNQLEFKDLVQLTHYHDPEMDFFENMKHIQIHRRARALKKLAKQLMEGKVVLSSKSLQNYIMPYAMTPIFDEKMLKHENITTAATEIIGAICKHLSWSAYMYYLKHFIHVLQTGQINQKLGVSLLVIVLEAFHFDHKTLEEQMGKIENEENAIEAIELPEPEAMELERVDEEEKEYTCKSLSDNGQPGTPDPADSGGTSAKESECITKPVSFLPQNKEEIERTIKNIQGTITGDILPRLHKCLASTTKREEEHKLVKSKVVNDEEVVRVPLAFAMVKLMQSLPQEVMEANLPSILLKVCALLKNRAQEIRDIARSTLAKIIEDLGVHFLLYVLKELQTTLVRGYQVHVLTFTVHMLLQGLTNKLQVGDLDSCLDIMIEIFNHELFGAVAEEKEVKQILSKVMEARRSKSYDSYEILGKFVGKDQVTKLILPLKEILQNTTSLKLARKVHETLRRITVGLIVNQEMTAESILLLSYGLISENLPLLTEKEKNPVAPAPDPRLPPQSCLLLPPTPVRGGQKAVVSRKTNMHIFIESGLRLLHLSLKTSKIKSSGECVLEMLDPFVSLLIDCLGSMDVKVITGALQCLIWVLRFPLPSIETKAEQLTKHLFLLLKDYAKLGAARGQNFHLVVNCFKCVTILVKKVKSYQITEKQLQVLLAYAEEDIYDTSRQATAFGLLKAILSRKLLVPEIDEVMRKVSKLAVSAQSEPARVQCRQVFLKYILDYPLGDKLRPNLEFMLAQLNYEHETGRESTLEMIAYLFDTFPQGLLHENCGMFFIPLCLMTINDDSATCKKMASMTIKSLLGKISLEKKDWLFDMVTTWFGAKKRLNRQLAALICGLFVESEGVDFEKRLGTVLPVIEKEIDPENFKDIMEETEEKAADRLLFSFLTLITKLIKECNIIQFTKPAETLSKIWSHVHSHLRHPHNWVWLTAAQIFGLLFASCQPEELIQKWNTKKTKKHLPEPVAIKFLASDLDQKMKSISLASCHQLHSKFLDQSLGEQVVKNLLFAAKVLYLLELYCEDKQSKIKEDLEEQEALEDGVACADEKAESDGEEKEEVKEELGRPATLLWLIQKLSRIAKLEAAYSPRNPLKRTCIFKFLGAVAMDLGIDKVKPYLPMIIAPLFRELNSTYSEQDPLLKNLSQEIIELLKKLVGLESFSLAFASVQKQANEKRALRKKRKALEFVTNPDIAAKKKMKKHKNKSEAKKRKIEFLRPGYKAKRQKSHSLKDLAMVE
# UniProt O95425, whole entry: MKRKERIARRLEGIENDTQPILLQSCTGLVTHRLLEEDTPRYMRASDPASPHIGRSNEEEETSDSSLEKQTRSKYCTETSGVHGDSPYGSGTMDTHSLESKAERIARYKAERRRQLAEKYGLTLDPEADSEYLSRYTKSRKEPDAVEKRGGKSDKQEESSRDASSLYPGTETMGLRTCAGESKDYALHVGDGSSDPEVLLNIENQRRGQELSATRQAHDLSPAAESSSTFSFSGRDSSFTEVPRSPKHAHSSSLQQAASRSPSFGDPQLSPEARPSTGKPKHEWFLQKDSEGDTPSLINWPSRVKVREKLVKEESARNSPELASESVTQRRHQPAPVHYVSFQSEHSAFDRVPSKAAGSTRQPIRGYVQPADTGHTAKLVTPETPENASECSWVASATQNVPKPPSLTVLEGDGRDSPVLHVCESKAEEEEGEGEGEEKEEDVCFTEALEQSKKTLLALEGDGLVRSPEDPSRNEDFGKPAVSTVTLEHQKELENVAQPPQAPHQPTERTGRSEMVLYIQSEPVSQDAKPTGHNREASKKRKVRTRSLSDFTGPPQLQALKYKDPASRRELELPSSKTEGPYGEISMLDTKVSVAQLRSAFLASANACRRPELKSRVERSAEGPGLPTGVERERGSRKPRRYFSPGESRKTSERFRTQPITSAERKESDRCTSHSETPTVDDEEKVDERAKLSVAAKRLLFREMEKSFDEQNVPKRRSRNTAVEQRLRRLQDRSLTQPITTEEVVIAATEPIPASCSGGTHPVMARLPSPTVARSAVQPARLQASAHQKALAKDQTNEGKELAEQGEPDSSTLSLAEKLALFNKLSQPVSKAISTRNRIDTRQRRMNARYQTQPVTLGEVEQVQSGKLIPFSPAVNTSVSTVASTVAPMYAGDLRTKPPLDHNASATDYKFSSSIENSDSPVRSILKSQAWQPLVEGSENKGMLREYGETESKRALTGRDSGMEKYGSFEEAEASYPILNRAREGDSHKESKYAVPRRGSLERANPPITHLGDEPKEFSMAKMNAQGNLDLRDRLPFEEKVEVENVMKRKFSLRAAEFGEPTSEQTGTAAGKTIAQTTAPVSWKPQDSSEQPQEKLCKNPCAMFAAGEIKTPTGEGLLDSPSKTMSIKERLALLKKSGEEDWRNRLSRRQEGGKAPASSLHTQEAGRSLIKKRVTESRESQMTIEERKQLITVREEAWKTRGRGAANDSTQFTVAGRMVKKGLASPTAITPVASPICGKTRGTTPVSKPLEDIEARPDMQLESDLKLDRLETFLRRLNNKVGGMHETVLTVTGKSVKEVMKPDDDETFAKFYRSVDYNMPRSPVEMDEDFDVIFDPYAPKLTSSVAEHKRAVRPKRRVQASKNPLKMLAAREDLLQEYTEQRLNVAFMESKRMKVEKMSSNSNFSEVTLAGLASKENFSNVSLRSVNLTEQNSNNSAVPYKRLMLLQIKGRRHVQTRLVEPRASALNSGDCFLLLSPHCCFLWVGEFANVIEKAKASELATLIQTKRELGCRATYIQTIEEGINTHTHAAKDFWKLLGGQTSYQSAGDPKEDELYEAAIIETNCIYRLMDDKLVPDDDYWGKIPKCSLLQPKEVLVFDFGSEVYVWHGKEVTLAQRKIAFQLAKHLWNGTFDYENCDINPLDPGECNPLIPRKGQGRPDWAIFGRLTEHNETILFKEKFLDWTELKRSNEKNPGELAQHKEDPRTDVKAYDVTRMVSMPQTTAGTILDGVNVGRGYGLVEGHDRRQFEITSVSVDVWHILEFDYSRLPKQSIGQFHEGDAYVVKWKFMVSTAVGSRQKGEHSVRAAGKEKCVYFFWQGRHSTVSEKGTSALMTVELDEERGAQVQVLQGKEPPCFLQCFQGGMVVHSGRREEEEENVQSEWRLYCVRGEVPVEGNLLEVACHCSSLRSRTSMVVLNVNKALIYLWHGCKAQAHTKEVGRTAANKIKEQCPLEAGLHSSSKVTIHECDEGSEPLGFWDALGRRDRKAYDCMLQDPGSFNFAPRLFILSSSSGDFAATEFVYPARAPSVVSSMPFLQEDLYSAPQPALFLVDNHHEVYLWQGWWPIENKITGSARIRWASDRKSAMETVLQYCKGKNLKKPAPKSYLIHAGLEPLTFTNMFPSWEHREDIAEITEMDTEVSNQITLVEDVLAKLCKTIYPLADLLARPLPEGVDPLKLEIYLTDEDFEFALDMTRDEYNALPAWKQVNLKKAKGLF
# UniProt O75157: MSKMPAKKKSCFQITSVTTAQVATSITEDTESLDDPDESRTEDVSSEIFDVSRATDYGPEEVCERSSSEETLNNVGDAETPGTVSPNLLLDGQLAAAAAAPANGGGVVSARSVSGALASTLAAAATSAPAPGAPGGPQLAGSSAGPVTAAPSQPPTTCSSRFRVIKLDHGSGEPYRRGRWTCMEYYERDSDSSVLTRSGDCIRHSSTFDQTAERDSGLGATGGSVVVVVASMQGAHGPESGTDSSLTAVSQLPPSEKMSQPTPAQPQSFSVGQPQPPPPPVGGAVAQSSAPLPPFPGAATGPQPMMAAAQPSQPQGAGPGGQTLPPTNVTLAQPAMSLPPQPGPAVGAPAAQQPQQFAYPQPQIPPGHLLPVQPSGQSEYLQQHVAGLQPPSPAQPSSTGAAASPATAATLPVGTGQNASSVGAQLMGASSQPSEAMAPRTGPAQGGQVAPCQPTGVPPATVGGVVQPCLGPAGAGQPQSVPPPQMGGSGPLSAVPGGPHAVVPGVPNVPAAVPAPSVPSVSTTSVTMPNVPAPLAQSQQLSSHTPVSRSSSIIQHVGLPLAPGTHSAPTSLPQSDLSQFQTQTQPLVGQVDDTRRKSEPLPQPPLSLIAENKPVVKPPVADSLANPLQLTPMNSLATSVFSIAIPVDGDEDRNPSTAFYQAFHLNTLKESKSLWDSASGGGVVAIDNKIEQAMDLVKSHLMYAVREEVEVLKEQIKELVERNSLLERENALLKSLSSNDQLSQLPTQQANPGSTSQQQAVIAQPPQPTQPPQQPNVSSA
# UniProt O75964: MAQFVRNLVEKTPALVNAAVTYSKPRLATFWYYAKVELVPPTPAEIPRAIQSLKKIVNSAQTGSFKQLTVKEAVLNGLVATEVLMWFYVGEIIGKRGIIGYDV
# UniProt O75531: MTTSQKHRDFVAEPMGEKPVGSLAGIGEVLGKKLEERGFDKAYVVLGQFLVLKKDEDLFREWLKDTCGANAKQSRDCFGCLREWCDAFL
# UniProt O95470: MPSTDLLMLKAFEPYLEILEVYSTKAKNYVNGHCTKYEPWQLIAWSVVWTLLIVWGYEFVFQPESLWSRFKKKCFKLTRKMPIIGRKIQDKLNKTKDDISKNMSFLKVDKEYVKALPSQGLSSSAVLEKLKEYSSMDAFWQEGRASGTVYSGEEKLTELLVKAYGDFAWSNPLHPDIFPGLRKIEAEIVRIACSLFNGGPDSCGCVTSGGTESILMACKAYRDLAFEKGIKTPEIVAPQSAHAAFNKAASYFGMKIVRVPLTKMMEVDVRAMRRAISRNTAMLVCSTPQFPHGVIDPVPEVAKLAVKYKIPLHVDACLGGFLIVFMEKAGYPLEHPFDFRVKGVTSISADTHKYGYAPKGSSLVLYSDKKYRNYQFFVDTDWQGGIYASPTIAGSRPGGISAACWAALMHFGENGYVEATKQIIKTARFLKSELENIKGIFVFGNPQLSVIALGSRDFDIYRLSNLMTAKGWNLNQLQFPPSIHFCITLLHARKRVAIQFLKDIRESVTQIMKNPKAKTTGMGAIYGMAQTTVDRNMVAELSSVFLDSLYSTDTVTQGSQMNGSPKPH
# ± gives the standard deviation of the averaged measurements. The entries are a selection whose mix differs from that of the whole data set. Most values lie at the level of the controls, where differences are scatter.
# Compound: Nc1ncnc2c1ncn2[C@@H]1O[C@H](COP(=O)(O)OP(=O)(O)OP(=O)(O)O)[C@@H](O)[C@H]1O [adenosine triphosphate]
# Test: NP40-soluble protein abundance relative to vehicle (solubility fold change) (ratio); higher = more soluble protein in presence of ATP
# Outline: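 In three independent experiments, Jurkat crude lysate made by Dounce homogenisation was treated for 10 min at room temperature and then 3 min at 37 °C with eight concentrations ranging from 0.1 to 10 mM. It was then solubilised with 0.8% NP40 plus benzonase for 60 min at 4 °C and ultracentrifuged. The supernatant was TMT-labelled for LC-MS/MS, and each value is the fold change against the detergent-processed vehicle for the same replicate, using vsn-normalised intensities.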
target,measurement,setting,value
UniProt O95235 and related entries,NP40-soluble protein abundance,concentration: 0.1mM,1.05 ± 0.031
same,NP40-soluble protein abundance,concentration: 0.5mM,1.16 ± 0.057
UTP20 (UniProt O75691),NP40-soluble protein abundance,concentration: 0.1mM,1.04 ± 0.059
same,NP40-soluble protein abundance,concentration: 0.5mM,1.04 ± 0.11
UniProt O95425 and related entries,NP40-soluble protein abundance,concentration: 0.1mM,1.04 ± 0.38
same,NP40-soluble protein abundance,concentration: 0.5mM,0.826 ± 0.057
UniProt O95104 and related entries,NP40-soluble protein abundance,concentration: 0.1mM,1.15 ± 0.046
same,NP40-soluble protein abundance,concentration: 0.5mM,1.48 ± 0.058
UniProt O60502 and related entries,NP40-soluble protein abundance,concentration: 0.1mM,1.02 ± 0.034
same,NP40-soluble protein abundance,concentration: 0.5mM,1.02 ± 0.041
UniProt O75312,NP40-soluble protein abundance,concentration: 0.1mM,0.991 ± 0.032
same,NP40-soluble protein abundance,concentration: 0.5mM,0.988 ± 0.043
UniProt O94913 and related entries,NP40-soluble protein abundance,concentration: 0.1mM,0.9973 ± 0.0079
same,NP40-soluble protein abundance,concentration: 0.5mM,1.04 ± 0.052
UniProt O94822 and related entries,NP40-soluble protein abundance,concentration: 0.1mM,1.07 ± 0.031
same,NP40-soluble protein abundance,concentration: 0.5mM,1.03 ± 0.014
ARL6IP5 (UniProt O75915),NP40-soluble protein abundance,concentration: 0.1mM,1.01 ± 0.069
same,NP40-soluble protein abundance,concentration: 0.5mM,1.04 ± 0.073
UniProt O94916 and related entries,NP40-soluble protein abundance,concentration: 0.1mM,1 ± 0.052
same,NP40-soluble protein abundance,concentration: 0.5mM,0.9739 ± 0.0013
UniProt O94864 and related entries,NP40-soluble protein abundance,concentration: 0.1mM,0.9 ± 0.11
same,NP40-soluble protein abundance,concentration: 0.5mM,0.896 ± 0.11
CCNK (UniProt O75909),NP40-soluble protein abundance,concentration: 0.1mM,1.01 ± 0.06
same,NP40-soluble protein abundance,concentration: 0.5mM,1.09 ± 0.044
UniProt O75379 and related entries,NP40-soluble protein abundance,concentration: 0.1mM,1.02 ± 0.15
same,NP40-soluble protein abundance,concentration: 0.5mM,1.01 ± 0.16
UniProt O95271 and related entries,NP40-soluble protein abundance,concentration: 0.1mM,1.02 ± 0.072
same,NP40-soluble protein abundance,concentration: 0.5mM,1.12 ± 0.019
PLOD3 (UniProt O60568),NP40-soluble protein abundance,concentration: 0.1mM,1.06 ± 0.045
same,NP40-soluble protein abundance,concentration: 0.5mM,1.01 ± 0.057
WDHD1 (UniProt O75717),NP40-soluble protein abundance,concentration: 0.1mM,0.994 ± 0.014
same,NP40-soluble protein abundance,concentration: 0.5mM,1.01 ± 0.052
UniProt O94762 and related entries,NP40-soluble protein abundance,concentration: 0.1mM,1 ± 0.024
same,NP40-soluble protein abundance,concentration: 0.5mM,1.02 ± 0.025
UniProt O75190 and related entries,NP40-soluble protein abundance,concentration: 0.1mM,1.09 ± 0.066
same,NP40-soluble protein abundance,concentration: 0.5mM,1.12 ± 0.065
UniProt O75157 and related entries,NP40-soluble protein abundance,concentration: 0.1mM,0.989 ± 0.048
same,NP40-soluble protein abundance,concentration: 0.5mM,0.9 ± 0.062
SMPD2 (UniProt O60906),NP40-soluble protein abundance,concentration: 0.1mM,1.04 ± 0.18
same,NP40-soluble protein abundance,concentration: 0.5mM,0.973 ± 0.11
UniProt O75964,NP40-soluble protein abundance,concentration: 0.1mM,0.858 ± 0.08
same,NP40-soluble protein abundance,concentration: 0.5mM,0.864 ± 0.18
UniProt O75398 and related entries,NP40-soluble protein abundance,concentration: 0.1mM,1.01 ± 0.072
same,NP40-soluble protein abundance,concentration: 0.5mM,0.992 ± 0.049
UniProt O94804,NP40-soluble protein abundance,concentration: 0.1mM,0.999 ± 0.023
same,NP40-soluble protein abundance,concentration: 0.5mM,1.01 ± 0.034
BANF1 (UniProt O75531),NP40-soluble protein abundance,concentration: 0.1mM,1.09 ± 0.12
same,NP40-soluble protein abundance,concentration: 0.5mM,5.43 ± 2.5
same,NP40-soluble protein abundance,concentration: 1mM,5.83 ± 1.6
same,NP40-soluble protein abundance,concentration: 2mM,5.36 ± 0.56
same,NP40-soluble protein abundance,concentration: 4mM,5.89 ± 1.4
same,NP40-soluble protein abundance,concentration: 6mM,6.26 ± 1.4
same,NP40-soluble protein abundance,concentration: 8mM,5.6 ± 0.81
same,NP40-soluble protein abundance,concentration: 10mM,5.02 ± 1.8
UniProt O75081 and related entries,NP40-soluble protein abundance,concentration: 0.1mM,0.922 ± 0.042
same,NP40-soluble protein abundance,concentration: 0.5mM,0.914 ± 0.13
same,NP40-soluble protein abundance,concentration: 1mM,0.943 ± 0.039
same,NP40-soluble protein abundance,concentration: 2mM,0.9218 ± 0.0052
same,NP40-soluble protein abundance,concentration: 4mM,0.907 ± 0.052
same,NP40-soluble protein abundance,concentration: 6mM,0.888 ± 0.14
same,NP40-soluble protein abundance,concentration: 8mM,0.888 ± 0.082
same,NP40-soluble protein abundance,concentration: 10mM,0.97 ± 0.089
UniProt O60831 and related entries,NP40-soluble protein abundance,concentration: 0.1mM,0.972 ± 0.049
same,NP40-soluble protein abundance,concentration: 0.5mM,0.932 ± 0.052
UniProt O94925 and related entries,NP40-soluble protein abundance,concentration: 0.1mM,1.02 ± 0.034
same,NP40-soluble protein abundance,concentration: 0.5mM,1.04 ± 0.074
same,NP40-soluble protein abundance,concentration: 1mM,1.02 ± 0.071
same,NP40-soluble protein abundance,concentration: 2mM,0.968 ± 0.035
same,NP40-soluble protein abundance,concentration: 4mM,0.981 ± 0.078
same,NP40-soluble protein abundance,concentration: 6mM,0.944 ± 0.05
same,NP40-soluble protein abundance,concentration: 8mM,0.978 ± 0.061
same,NP40-soluble protein abundance,concentration: 10mM,0.947 ± 0.039
SGPL1 (UniProt O95470),NP40-soluble protein abundance,concentration: 0.1mM,1.04 ± 0.086
same,NP40-soluble protein abundance,concentration: 0.5mM,1.05 ± 0.059
same,NP40-soluble protein abundance,concentration: 1mM,1.05 ± 0.14
same,NP40-soluble protein abundance,concentration: 2mM,1.03 ± 0.1
same,NP40-soluble protein abundance,concentration: 4mM,1.02 ± 0.086
same,NP40-soluble protein abundance,concentration: 6mM,0.965 ± 0.094
same,NP40-soluble protein abundance,concentration: 8mM,1.07 ± 0.079
same,NP40-soluble protein abundance,concentration: 10mM,1.06 ± 0.075
SAP30 (UniProt O75446),NP40-soluble protein abundance,concentration: 0.1mM,0.868 ± 0.069
same,NP40-soluble protein abundance,concentration: 0.5mM,0.932 ± 0.19
same,NP40-soluble protein abundance,concentration: 1mM,0.93 ± 0.092
same,NP40-soluble protein abundance,concentration: 2mM,0.952 ± 0.092
same,NP40-soluble protein abundance,concentration: 4mM,0.907 ± 0.073
same,NP40-soluble protein abundance,concentration: 6mM,0.971 ± 0.15
same,NP40-soluble protein abundance,concentration: 8mM,0.96 ± 0.044
same,NP40-soluble protein abundance,concentration: 10mM,0.915 ± 0.13

# A second format for some results above.
target | measurement | setting | value
CCNK (UniProt O75909) | NP40-soluble protein abundance | concentration: 0.1mM | 1.01 ± 0.06
UniProt O75157 and related entries | NP40-soluble protein abundance | concentration: 0.5mM | 0.9 ± 0.062
SGPL1 (UniProt O95470) | NP40-soluble protein abundance | concentration: 2mM | 1.03 ± 0.1
